Measurements taken from PubChem BioAssay AID651640 (Broad Institute, 2012).
The campaign covered roughly 350,000 compounds. About 6,000 (1.7%) were called active. The shares of active, inactive and inconclusive entries below differ from those in the screen. Cut-off read from the data, not from the text of the source: active = CPE inhibition above about 20% (passing the limit was not always enough); inconclusive = no clear call, values can overlap the other calls; tested in BHK-21 cells. The source holds several records for some structures; these can differ, active in one and inactive in another.

Test: protection of cells from dengue 2 killing – plate reader, single concentration, primary screen (AID 651640);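 note: 0% = median of neutral control wells and 100% = median of positive control wells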
Details: DENV2-infected cells, cytopathic effect rescue, at 9.99 µM, hits give high values

Compound | CPE inhibition
CC(=O)c1ccc(N2CCN(C(=O)/C=C/c3ccc(S(=O)(=O)NCc4ccco4)cc3)CC2)cc1 | inactive: 4.18%
CCC(=O)N1CC[C@@H]2[C@H](CO)Nc3ccc(C#Cc4ccccc4)cc3[C@@H]21 | inconclusive: 21.2%
OC[C@@H]1CN(Cc2cccnc2)C[C@H](n2cnc3c(N4CCCC4)ncnc32)O1 | inconclusive: 23.3%
O=C(CN1CCN(CC(=O)Nc2ccccc2Cl)CC1)NCC1(N2CCOCC2)CCCCC1 | inconclusive: 45.9%
O=C(C[C@@H]1C=C[C@@H](NS(=O)(=O)c2ccccc2)[C@H](CO)O1)NCCN1CCCCC1 | inactive: -10.3%
CN1OC[C@@H]2CN(Cc3cc(Cl)cc(Cl)c3)[C@H](c3cccc(-c4ccc(C#N)cc4)c3)C[C@@H]21 | active: 24.1%
C[C@@H]1CCCCO[C@H](CN(C)C(=O)Nc2ccc(F)cc2)[C@@H](C)CN([C@@H](C)CO)C(=O)c2cc(NC(=O)c3ccncc3)ccc2O1 | inactive: 4.03%
Cc1cc(=O)[nH]c(N2CCN(C(=O)c3ccco3)CC2)n1 | inconclusive: 28.3%
CCCC#Cc1cnc2c(c1)C(=O)N([C@@H](C)CO)C[C@H](C)[C@H](CN(C)C(=O)c1cccc(F)c1)O2 | active: 26.5%
COC(=O)c1c(NC(=O)CSc2nc3ccccc3c(=O)n2Cc2ccco2)sc(C)c1C | inactive: -0.404%
CCCc1cc(=O)[nH]c(SCc2csc(-c3ccccc3)n2)n1 | inconclusive: 30.3%
Cc1noc(C)c1COc1ccccc1C(=O)N1CCN(S(=O)(=O)c2cccc([N+](=O)[O-])c2)CC1 | inactive: -0.436%
O=C(c1ccncc1)N1CC2(C1)[C@H](c1ccccc1)[C@@H](CO)N2CC1CCCC1 | inactive: 0.156%
COc1ccc2c3c(n(C)c2c1)[C@H](CO)N(C)CC31CN(S(=O)(=O)c2cccs2)C1 | inconclusive: 39.4%
COc1cc(N=Nc2ccc3ccccc3c2)ccc1O | inconclusive: 32.6%
NCC[C@@H]1CC[C@@H](NC(=O)Nc2ccc(F)cc2)[C@H](CO)O1 | inactive: -11.8%
COc1ccc2ccccc2c1CNC(C)c1ccccc1 (stereo unspecified) | active: 35.7%
CC(C)CCN(N=O)[C@@H](Cc1ccccc1)CN(N=O)[C@@H](Cc1ccccc1)CN(C)N=O | inconclusive: 33.6%
Cn1ccc2c(N3CCOCC3)cc3c(c21)C1CCC3O1 (stereo unspecified) | active: 48%
COc1ccc(CN(C)C[C@@H]2Oc3c(NC(=O)Nc4ccc(OC)cc4)cccc3C(=O)N([C@H](C)CO)C[C@H]2C)cc1 | active: 41.8%
CCOC(=O)N1CCC(C(=O)NNC(=O)c2ccc(Cl)cc2Cl)CC1 | active: 45.3%
CN(C)C(=O)C[C@@H]1C[C@H]2c3cc(NC(=O)Nc4ccccc4)ccc3O[C@H]2[C@@H](CO)O1 | inconclusive: 54.4%
C[C@H]1CN([C@@H](C)CO)C(=O)CCCn2nncc2CO[C@H]1CN(C)Cc1cccnc1 | inconclusive: 28.1%
O=C(c1cccc(S(=O)(=O)NCc2ccccc2)c1)N1CCN(c2ccc(F)cc2)CC1 | inactive: -2.54%
CN(c1ccc(C(=O)N2CCN(Cc3ccc4c(c3)OCO4)CC2)cc1)S(C)(=O)=O | inconclusive: 28.5%
C[C@@H]1CN([C@H](C)CO)C(=O)c2cccc(N(C)C)c2O[C@@H]1CN(C)C(=O)Nc1ccc2c(c1)OCO2 | active: 26.9%

Reprinted at random: 6 compounds from above.
Compound | CPE inhibition
CN1OC[C@@H]2CN(Cc3cc(Cl)cc(Cl)c3)[C@H](c3cccc(-c4ccc(C#N)cc4)c3)C[C@@H]21 | active: 24.1%
COC(=O)c1c(NC(=O)CSc2nc3ccccc3c(=O)n2Cc2ccco2)sc(C)c1C | inactive: -0.404%
CCOC(=O)N1CCC(C(=O)NNC(=O)c2ccc(Cl)cc2Cl)CC1 | active: 45.3%
O=C(c1cccc(S(=O)(=O)NCc2ccccc2)c1)N1CCN(c2ccc(F)cc2)CC1 | inactive: -2.54%
CC(C)CCN(N=O)[C@@H](Cc1ccccc1)CN(N=O)[C@@H](Cc1ccccc1)CN(C)N=O | inconclusive: 33.6%
Cc1cc(=O)[nH]c(N2CCN(C(=O)c3ccco3)CC2)n1 | inconclusive: 28.3%

(next part)

Compound | CPE inhibition
CC(C)OCC(O)CN1CCC(Cc2ccccc2)CC1 (stereo unspecified) | inactive: 12.9%
O=S(=O)(c1ccc2c(c1)OCCO2)N1CCN(c2nc3ccccc3s2)CC1 | inconclusive: 32.5%
Cc1cccc(N2CCN(C(=O)CCc3nc4ccccc4[nH]3)CC2C)c1 (stereo unspecified) | inactive: 5.36%
O=C(Nc1ccccc1Cl)C1CCCN(c2ncnc3c2nc2n3CCCCC2)C1 (stereo unspecified) | inactive: 3.74%
O=C(C[C@@H]1CC[C@@H](NC(=O)c2ccncc2)[C@H](CO)O1)NCC1CC1 | inconclusive: 32.1%
CCOc1ccc(NC(=O)/C(C#N)=C\c2ccc(N3CCCC3)c(C)c2)cc1 | inconclusive: 27%
O=C(NC[C@H]1[C@@H](c2ccccc2)[C@H](CO)N1C(=O)C1CC1)NC1CCCC1 | inactive: -2.66%
O=C(C[C@H]1CC[C@@H](NC(=O)C2CC2)[C@H](CO)O1)Nc1nccs1 | inconclusive: 25.9%
Cc1nnc(SCC(=O)Nc2cc(S(=O)(=O)N3CCCC3)ccc2Cl)n1C1CC1 | inconclusive: 25.4%
O=C(O)c1cc(-c2cc3ccccc3o2)nn1-c1ccccc1 | inconclusive: 20.7%
Cc1c(NC(=O)CN2CCN(c3ccc(O)cc3)CC2)c(=O)n(-c2ccccc2)n1C | inactive: -3.54%
CCOC(=O)c1cc(CC)sc1N1C(=O)CC(Sc2ncccc2C(=O)O)C1=O (stereo unspecified) | inconclusive: 23.7%
C[C@H]1CN([C@@H](C)CO)S(=O)(=O)c2ccc(C3=CCCC3)cc2O[C@H]1CN(C)CC1CC1 | inactive: 5.41%
CCOc1ccccc1N1CCN(C(=O)c2ccc(S(=O)(=O)Nc3ccccc3)cc2)CC1 | inactive: 3.97%
CNC[C@H]1Oc2c(NC(=O)NC(C)C)cccc2C(=O)N([C@H](C)CO)C[C@@H]1C | inactive: 2.43%
Cc1[nH]c2ccccc2c1/C=N/NC(=O)CNC(=O)COc1ccccc1 | inactive: -2.34%
CC(=O)Nc1cc2c(c(Cl)c1Cl)-c1ccccc1C2=O | inconclusive: 20.2%
C[C@H]1CCCCO[C@@H](CN(C)Cc2ccc(C(F)(F)F)cc2)[C@@H](C)CN([C@@H](C)CO)C(=O)c2cc(NS(=O)(=O)c3ccccc3)ccc2O1 | inactive: -0.336%
COc1ccc([C@H]2N[C@]3(CCCN(Cc4ccc(C)cc4)C3=O)[C@H]3C(=O)N(C)C(=O)[C@@H]23)cc1 | inactive: 5.16%
O=C(CN1CCOCC1)NCC[C@H]1CC[C@H](NC(=O)Cc2ccccn2)[C@@H](CO)O1 | active: 24.4%
CNc1cncc(-c2ccc(NS(C)(=O)=O)cc2)n1 | inconclusive: 65%
Cc1ccc(NC(=O)c2ccc(S(=O)(=O)N3CC(C)CC(C)C3)cc2)cc1S(=O)(=O)N1CCOCC1 (stereo unspecified) | active: 45.6%
O=C1CN(C(=O)CSc2nncs2)c2ccccc2N1 | inconclusive: 26.5%
Cc1cc(Br)ccc1NC(=O)CN(C)C(=O)CN1C(=O)NC(C)(C2CC2)C1=O (stereo unspecified) | inconclusive: 67.2%
CO[C@H]1CN(C)C(=O)c2ccc(NC(=O)C3CC3)cc2OC[C@H](C)N(C(C)=O)C[C@@H]1C | inactive: -4.36%
C[C@@H]1CN([C@@H](C)CO)C(=O)c2cc(NS(=O)(=O)c3cn(C)cn3)ccc2O[C@@H](C)CCCCO[C@H]1CN(C)Cc1ccncc1 | active: 69.9%

Compound | CPE inhibition
c1nc(SSc2ncnc3nc[nH]c23)c2[nH]cnc2n1 | inactive: -5.06%
CN1C[C@H](O)COC[C@H]2O[C@H](CC(=O)NC3CCC3)CC[C@@H]21 | inconclusive: 24.4%
C[C@H]1CN([C@@H](C)CO)C(=O)c2cccc(NC(=O)c3ccncc3)c2O[C@@H]1CN(C)Cc1ccc(Oc2ccccc2)cc1 | inactive: -2.69%
COc1ccc(CNC(=O)c2cc(=O)c3ccc(C)c(C)c3o2)cc1 | inactive: 9.03%
C[C@@H]1CN([C@H](C)CO)S(=O)(=O)c2ccc(C#Cc3ccc(F)cc3)cc2O[C@H]1CN(C)C | inactive: -13.3%
O=S(=O)(NC1CCN(S(=O)(=O)c2c(F)cccc2F)CC1)c1ccc2c(c1)OCCO2 | inconclusive: 21.9%
CCOc1cc(N2CCOCC2)c(OCC)cc1NC(=O)CN1CCN(Cc2ccc3c(c2)OCO3)CC1 | active: 28.5%
COCCNC(=O)C1(C)CCCN(C(=O)c2ccccc2)C1 (stereo unspecified) | active: 32.8%
COc1cccc(NC(=O)Nc2ccc3c(c2)C(=O)N(C)C[C@H](OC)[C@@H](C)CN(CC2CC2)[C@@H](C)CO3)c1 | active: 22.3%
CC(=O)NC(c1ccccc1)c1cc([N+](=O)[O-])c2cccnc2c1O (stereo unspecified) | inactive: -2.87%
CC1(C)CC(=O)C=C(c2cccc(Br)c2)C1 | inconclusive: 47.6%
N#C[C@H]1[C@@H](c2ccccc2-c2ccccc2F)[C@H](CO)N1C(=O)C1CC1 | active: 25.5%
CSc1ncccc1C(=O)N1CCC(C)(C(=O)O)C1 (stereo unspecified) | inconclusive: 66%
O=C(Nc1ccccc1Cl)OCc1cncs1 | inconclusive: 25.9%
O=[N+]([O-])c1ccc2nn(Cc3ccccc3)cc2c1 | inconclusive: 25.6%
CCc1ccc(Nc2n[n+](-c3ccccc3)c(-c3c(Cl)cccc3Cl)s2)cc1 | inactive: -1.88%
O=C(CN1CCOCC1)NCC[C@H]1CC[C@@H](NS(=O)(=O)c2ccc(Cl)cc2)[C@@H](CO)O1 | inactive: 7.21%
CO[C@H]1CN(C)C(=O)c2cc(NC(=O)CC(F)(F)F)ccc2OC[C@H](C)N(CCC(F)(F)F)C[C@@H]1C | inactive: -4.58%
C[C@H]1CN([C@@H](C)CO)S(=O)(=O)c2ccc(Br)cc2O[C@H]1CN(C)C(=O)CN(C)C | active: 37.7%
COc1ccc(CCNS(=O)(=O)c2ccc3c(c2)CCCC3)cc1OC | inconclusive: 65.1%
CCC(=O)N1C[C@@H](O)COC[C@H]2O[C@H](CC(=O)N3CCCCC3)CC[C@@H]21 | inactive: 4.13%
Cc1noc(C)c1S(=O)(=O)N(C)C[C@@H]1Oc2ccc(NS(=O)(=O)c3cn(C)cn3)cc2CC(=O)N([C@H](C)CO)C[C@H]1C | inconclusive: 44.3%
CNC[C@H]1Oc2ccc(NS(C)(=O)=O)cc2CC(=O)N([C@@H](C)CO)C[C@H]1C | inactive: -0.909%
COc1ccc(NC(=O)C2C(c3ccccc3)C2(Cl)Cl)c(OC)c1 (stereo unspecified) | inconclusive: 29.1%
